Reference: article PMC10687032, “Phosphorylation of USP27X by GSK3β maintains the stability and oncogenic functions of CBX2” (Cell Death & Disease, 2023)
Results are given in words; binding and its absence hold for the method and conditions named. Binding seen in cells or lysates may run through a third protein. Some entries that bind do so weakly or less than the wild type. For some assays here: Where a sequence is shown, tags or fusion partners need not be part of it.

Sequences of proteins named here, by UniProt entry; tags and fusion partners are left off.
UniProt Q14781: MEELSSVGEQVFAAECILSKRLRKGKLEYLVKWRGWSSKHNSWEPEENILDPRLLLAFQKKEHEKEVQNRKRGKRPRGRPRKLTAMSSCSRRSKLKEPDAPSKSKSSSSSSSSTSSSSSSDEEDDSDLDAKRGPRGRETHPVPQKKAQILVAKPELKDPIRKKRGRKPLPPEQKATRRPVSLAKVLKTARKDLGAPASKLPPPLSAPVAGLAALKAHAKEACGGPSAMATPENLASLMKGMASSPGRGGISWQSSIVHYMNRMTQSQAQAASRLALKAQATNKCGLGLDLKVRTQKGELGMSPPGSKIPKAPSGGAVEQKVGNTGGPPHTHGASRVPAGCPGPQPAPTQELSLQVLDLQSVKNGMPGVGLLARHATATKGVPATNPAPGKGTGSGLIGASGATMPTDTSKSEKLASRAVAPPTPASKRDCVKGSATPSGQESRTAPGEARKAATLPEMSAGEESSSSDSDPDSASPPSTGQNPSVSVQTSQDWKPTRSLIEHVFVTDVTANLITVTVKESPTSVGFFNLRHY
UniProt P49841: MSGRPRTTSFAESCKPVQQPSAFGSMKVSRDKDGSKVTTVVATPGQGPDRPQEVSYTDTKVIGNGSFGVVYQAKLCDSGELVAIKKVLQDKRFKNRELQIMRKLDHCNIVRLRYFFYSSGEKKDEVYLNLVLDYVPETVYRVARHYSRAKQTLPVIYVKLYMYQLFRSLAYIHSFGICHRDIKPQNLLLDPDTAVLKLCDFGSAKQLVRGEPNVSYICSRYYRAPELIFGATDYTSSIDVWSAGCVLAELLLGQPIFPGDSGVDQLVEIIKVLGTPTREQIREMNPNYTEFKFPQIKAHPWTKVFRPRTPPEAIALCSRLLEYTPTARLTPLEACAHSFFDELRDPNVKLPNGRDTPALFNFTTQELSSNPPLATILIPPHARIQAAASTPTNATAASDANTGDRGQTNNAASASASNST

Tests used:
[1] = molecular target: T1, HA-tagged full-length (FL) USP27X (human) (UniProt A6NNY8); experiment: co-IP; HEK-293T cells co-transfected with HA-USP27X and Myc-CBX2 (full length, deletion mutants or S135A); IP with anti-Myc or anti-HA magnetic beads, IB with HA and Myc antibodies; lysis buffer 50 mM Tris-Cl pH 7.4, 150 mM NaCl, 1% Triton X-100, 1 mM DTT; in Fig. 5I with Flag-GSK3β co-transfected, IP anti-Myc, IB anti-HA
T1 sequence: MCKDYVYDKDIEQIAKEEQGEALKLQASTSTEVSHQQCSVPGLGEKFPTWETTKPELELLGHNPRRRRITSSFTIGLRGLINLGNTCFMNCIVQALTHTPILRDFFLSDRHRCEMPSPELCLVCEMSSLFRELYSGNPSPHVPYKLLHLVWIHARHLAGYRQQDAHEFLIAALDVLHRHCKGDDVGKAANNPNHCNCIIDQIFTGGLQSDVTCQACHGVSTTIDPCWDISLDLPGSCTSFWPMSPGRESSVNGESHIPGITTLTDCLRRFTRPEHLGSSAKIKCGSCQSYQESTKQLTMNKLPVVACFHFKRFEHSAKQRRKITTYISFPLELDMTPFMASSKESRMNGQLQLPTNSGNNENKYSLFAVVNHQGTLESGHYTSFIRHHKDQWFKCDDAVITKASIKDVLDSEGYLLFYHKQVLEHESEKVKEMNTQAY

[2] = molecular target: T1, HA-tagged full-length (FL) USP27X (human); experiment: proximity ligation; in situ PLA between exogenous USP27X and CBX2 in HEK-293T cells
[3] = molecular target: T2, endogenous USP27X (human (endogenous in MCF7, MDA-MB-231, BT-549)) (UniProt A6NNY8); experiment: co-IP; endogenous proteins in lysates of MCF7, MDA-MB-231 and BT-549; IP with antibodies against USP27X, CBX2 or GSK3β, IgG as isotype control; lysis buffer 50 mM Tris-Cl pH 7.4, 150 mM NaCl, 1% Triton X-100, 1 mM DTT; in Fig. 5F-H after GSK3β overexpression or GSK3β siRNA for 36 h and 20 µM MG132 for 6 h
T2 sequence: T1 sequence

[4] = molecular target: T2, endogenous USP27X (human (endogenous in MCF7, MDA-MB-231, BT-549)); experiment: proximity ligation; in situ PLA (Duolink, Rabbit PLUS and Mouse MINUS) between endogenous USP27X and CBX2 in fixed cells

| Substance | binding [1] | binding [2] | binding [3] | binding [4] |
| --- | --- | --- | --- | --- |
| Myc-tagged full-length (FL) CBX2 (from UniProt Q14781 1-532) | binds | binds | – | – |
| endogenous CBX2 (from UniProt Q14781 1-532) | – | – | binds | binds |
| endogenous GSK3β (from UniProt P49841 1-420) (enzyme) | – | – | binds | – |
